# Measured values as given in PubChem BioAssay AID493014 (National Center for Advancing Translational Sciences (NCATS), 2011).
# This is one part of the list. These are further read-outs of the screen, such as a control signal, another cell line or another target. No call is given for them. Most of these compounds were active or inconclusive in the main read-out, so they are no random draw. Potencies come from curve fits of mixed quality, noted in brackets. Peptide text beside a SMILES is read from it. * marks the point of attachment. Cbz = O=C(OCc1ccccc1)*
# Test: qHTS Assay to Find Inhibitors of Chronic Active B-Cell Receptor Signaling
# Conditions: ABC-DLBCL IkBa-CBG/CBR reporter, luminescence ratio (green luciferase fused to IkBa over red control in TMD8 lymphoma cells), 4 h
# Summary of the method: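 Compounds up to 46 uM were incubated four hours with TMD8 cells whose green CBG68 luciferase is fused to IkappaBalpha; red CBR luminescence normalised the signal, and concentration-effect curves were fitted to fusion, red and ratio data.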
# [1] = measured here: CBR red luminescence, cell number
# [2] = measured here: IkBa-CBG green luminescence
SMILES,AC50 [1],AC50 [2]
CNS(=O)(=O)c1cccc(C(=O)OCC(=O)Nc2nc(OC)cc(OC)n2)c1,"10.3 µM [falling, single point]",
O=C(Nc1ccc(C(F)(F)F)cc1)c1ccccc1Br,"20 µM [falling, partial curve, poor fit]",
CCOc1ccc(C(CC(=O)O)NC(=O)COc2ccccc2)cc1OC (stereo unspecified),"35.5 µM [falling, partial curve, poor fit]",
CC(OC(=O)Cc1ccc(Br)cc1)C(=O)NC1CCCC1 (stereo unspecified),"0.259 µM [falling, full curve]",
Cc1cccc(-c2nnc(NC(=O)c3cccs3)s2)c1,"1.3 µM [falling, full curve]",
C/C1=C\CCC2C(/C=C(\C)CC1)OC(=O)C2CN1CCCCC1 (stereo unspecified),"3.55 µM [falling, full curve]",
Cc1ccc(CNS(=O)(=O)CCNC(=O)c2ccccc2)cc1,"29.1 µM [rising, partial curve, poor fit]",
CNc1nc(SCC(=O)Nc2ccccc2)nc(N2CCOCC2)n1,"0.631 µM [rising, full curve, poor fit]",
CCN(CC)CCOC(=O)c1ccc(NC(=O)c2cn(-c3ccccc3)nc2-c2cccs2)cc1,"22.4 µM [falling, single point]",
Cc1ccc(NC(=O)c2cc3ccccc3oc2=N)cc1,"11.2 µM [falling, partial curve, poor fit]",
COc1cc(-c2nc3c4ccccc4nc(=S)n3[nH]2)cc(OC)c1OC,"2 µM [rising, partial curve, poor fit]",
CCC(=O)Oc1ccc(C(=O)Nc2cccc(C(=O)NCC(C)C)c2)cc1,"1.78 µM [falling, partial curve, poor fit]",
COc1ccccc1OCCNc1ccc(S(=O)(=O)N2CCCC2)cn1,"13 µM [falling, partial curve, poor fit]",
CCOC(=O)c1cc(-c2ccc(OC)cc2)n[nH]1,"35.5 µM [falling, single point]",
CC(/C=C/c1ccccc1)=N/NC(=O)Cn1nnc(N)n1,"8.91 µM [rising, partial curve]",
CCC(=O)NC(Nc1sc2c(c1C(=O)OC)CCC2)C(Cl)(Cl)Cl (stereo unspecified),"25.9 µM [falling, single point]","10.3 µM [rising, partial curve, poor fit]"
Cc1ccc(C)c(S(=O)(=O)Nc2ccc(C(=O)N3CC(C)OC(C)C3)cc2)c1 (stereo unspecified),"0.184 µM [rising, full curve, poor fit]",
Cc1ccc(-c2nc(CS(=O)CC(=O)N3CCN(c4ccc(Cl)cc4)CC3)c(C)o2)cc1 (stereo unspecified),"11.2 µM [falling, partial curve, poor fit]",
CCOC(=O)c1ccc(NC(=S)NC(=O)c2cncc(Br)c2)cc1,"35.5 µM [rising, single point]",
O=C(N/N=C\c1cn[nH]c1-c1ccccc1)c1cccnc1,"29.1 µM [falling, single point]",
COc1ccc(-c2cn3c(C)c(C(=O)N4CCN(c5ccccc5F)CC4)sc3n2)cc1,"17.8 µM [falling, partial curve, poor fit]",

SMILES,AC50 [1],AC50 [2]
O=C(c1ccc(Cl)c(S(=O)(=O)NCc2ccco2)c1)N1CCN(c2ccc(F)cc2)CC1,"0.517 µM [falling, full curve, poor fit]",
Cc1ccc(Cl)cc1NC(=O)c1cc(NC(=O)CCCC(=O)O)ccc1N1CCCCC1,"35.5 µM [falling, single point]",
CCCC[C@]12Cc3ccccc3C(O1)c1c(cc(-c3ccccc3)oc1=O)O2,"1.12 µM [rising, partial curve]","1.26 µM [falling, single point]"
Cc1nc(-c2ccc(NC(=O)CC(C)C)cc2)cs1,"29.1 µM [falling, single point]",
CCOC(=O)CON1C(=O)c2ccccc2C1=O,"8.2 µM [rising, partial curve, poor fit]",
CCc1cc2ccc(C)cc2nc1SCC(=O)c1ccc(NC(C)=O)cc1,"7.08 µM [rising, full curve, poor fit]",
Fc1cc(Br)ccc1COc1ccc(-c2nnco2)cc1,"10 µM [rising, partial curve, poor fit]",
C/C(=N\NC1=NCCN1)c1ccc(N)c([N+](=O)[O-])c1,"8.91 µM [falling, partial curve, poor fit]",
N#Cc1ccc2[nH]c(CO)c(-c3ccccc3)c2c1,"7.94 µM [falling, partial curve, poor fit]",
O=C(COC(=O)COc1ccccc1F)NCCc1ccc(F)cc1,"6.51 µM [falling, single point]",
O=C(NC(Cc1ccccc1)C(=O)N1CCN(c2ccccn2)CC1)c1ccco1 (stereo unspecified),"2.59 µM [falling, partial curve, poor fit]",
CCC(C)C(NC(=O)C(C)NC(=O)CNC(=O)CNC(=O)OCc1ccccc1)C(=O)OC (stereo unspecified) (Cbz-GGAI-OMe; configuration not given here),"16.4 µM [rising, partial curve, poor fit]",
CCOc1ccc(C2NC(=O)C(C#N)=C(S)N2c2ccc(C)cc2)cc1OC (stereo unspecified),"7.31 µM [rising, partial curve]",
O=C(COc1ccccc1Cc1ccccc1)Nc1cccnc1,"0.92 µM [rising, partial curve]",
O=C(COc1ccc(Br)cc1CO)Nc1ccccc1,"11.2 µM [falling, partial curve]",
COc1cccc(-c2sc3ccc(OC)cc3c2C#CC(C)(C)O)c1,"29.1 µM [falling, single point]",
CC1CCCC(NC(=O)CN(C)CC(=O)Nc2ccc(F)cc2)C1C (stereo unspecified),"3.66 µM [falling, full curve, poor fit]",
O=S(=O)(O)Oc1c[nH]c2ccccc12,"16.4 µM [falling, partial curve]",
CCOC(=O)c1ccc(NC(=O)c2nc[nH]c2C(=O)N2CCC(C)CC2)cc1,"10 µM [rising, partial curve, poor fit]",
CCc1ccccc1NC1=NCC(=O)N1C1CCCCC1,"5.01 µM [falling, full curve]",
Cc1c(Cl)cccc1NC(=O)Nc1ccn(C)n1,"32.6 µM [falling, single point]",

SMILES,AC50 [1],AC50 [2]
CCCc1nc2oc3c(NCCN(C)C)ncnc3c2c2c1CCCC2,"17.8 µM [falling, partial curve, poor fit]",
OCCNc1cc(Cl)ncn1,"6.31 µM [rising, single point]",
CN(C(=O)CSc1nc2ccccc2o1)C1CCCCC1,"29.1 µM [rising, single point]",
N/C(=N\OC(=O)CCC1CCCCC1)c1cccnc1,"2.51 µM [rising, partial curve, poor fit]",
O=C(c1ccc(C#CC2(O)CCCCC2)cc1)N1CCN(Cc2ccccc2)CC1,"28.2 µM [falling, partial curve, poor fit]",
Cc1ccccc1NC(=O)Nc1cnccn1,"22.4 µM [falling, single point]",
NC(=O)C1CCN(C(=O)c2ccc(OCC(=O)Nc3cccc(C(F)(F)F)c3)cc2)CC1,"6.51 µM [falling, single point]",
CCN1C(=NCc2cc(OC)c(OC)c(OC)c2)N[C@@H](c2cccc(C(F)(F)F)c2)C(C(=O)OC)=C1C,"35.5 µM [falling, single point]",
Cc1ccc(C)c(C(=O)OCC(=O)Nc2cccc(S(=O)(=O)NC3=NCCCCC3)c2)c1,"35.5 µM [falling, single point]",
C=CCC[C@@H](Cc1ccc(F)cc1)C(=O)OC[C@H](Cc1c[nH]c2ccccc12)NC(=O)[C@@H](CC=C)CC(=O)N(CCO)Cc1ccccc1,"14.6 µM [falling, partial curve]",
COc1cc(CC(=O)OCC(=O)N2CCN(C(=O)c3ccco3)CC2)cc(OC)c1OC,"25.9 µM [rising, single point]",
Cc1ccc(/C=C/C(=O)c2cc(Br)ccc2OC(=O)c2ccco2)cc1,"6.51 µM [rising, single point]","6.51 µM [falling, single point]"
OCCCNc1nc(-c2ccccc2)c2cc(Br)ccc2n1,"22.4 µM [falling, single point]",
CSc1nsc2nc(=O)c(/C=C3\C(C)=Nc4ccc(C)cc43)c(N)n12,"8.91 µM [falling, partial curve, poor fit]","7.08 µM [rising, partial curve, poor fit]"
COc1ccc(S(=O)(=O)NC(N)=NCCc2ccc(OC)c(OC)c2)cc1,"0.708 µM [rising, full curve, poor fit]",
COC(=O)CCCC(=O)NC1CCCc2c1cnn2-c1ccc(F)cc1F (stereo unspecified),"0.1 µM [rising, full curve, poor fit]",
N#Cc1c(-c2ccc(Cl)cc2)ccnc1N1CCOCC1,"3.55 µM [rising, partial curve, poor fit]",
CCCOc1cccc(C(=O)Nc2cccc(NC(=O)c3ccco3)c2)c1,"2 µM [falling, partial curve]",
Cc1ccc(NCc2nc3ccccc3n2CCOc2ccccc2)cc1,"1.84 µM [falling, partial curve]",
Clc1ccc(-c2nnc(NC3=NCCCCC3)o2)cc1,"1.58 µM [falling, full curve]",

# At a glance, 18 of the compounds above:
SMILES,AC50 [1],AC50 [2]
CN(C(=O)CSc1nc2ccccc2o1)C1CCCCC1,"29.1 µM [rising, single point]",
N/C(=N\OC(=O)CCC1CCCCC1)c1cccnc1,"2.51 µM [rising, partial curve, poor fit]",
O=C(c1ccc(C#CC2(O)CCCCC2)cc1)N1CCN(Cc2ccccc2)CC1,"28.2 µM [falling, partial curve, poor fit]",
Cc1ccccc1NC(=O)Nc1cnccn1,"22.4 µM [falling, single point]",
NC(=O)C1CCN(C(=O)c2ccc(OCC(=O)Nc3cccc(C(F)(F)F)c3)cc2)CC1,"6.51 µM [falling, single point]",
CCN1C(=NCc2cc(OC)c(OC)c(OC)c2)N[C@@H](c2cccc(C(F)(F)F)c2)C(C(=O)OC)=C1C,"35.5 µM [falling, single point]",
Cc1ccc(C)c(C(=O)OCC(=O)Nc2cccc(S(=O)(=O)NC3=NCCCCC3)c2)c1,"35.5 µM [falling, single point]",
C=CCC[C@@H](Cc1ccc(F)cc1)C(=O)OC[C@H](Cc1c[nH]c2ccccc12)NC(=O)[C@@H](CC=C)CC(=O)N(CCO)Cc1ccccc1,"14.6 µM [falling, partial curve]",
COc1cc(CC(=O)OCC(=O)N2CCN(C(=O)c3ccco3)CC2)cc(OC)c1OC,"25.9 µM [rising, single point]",
Cc1ccc(/C=C/C(=O)c2cc(Br)ccc2OC(=O)c2ccco2)cc1,"6.51 µM [rising, single point]","6.51 µM [falling, single point]"
OCCCNc1nc(-c2ccccc2)c2cc(Br)ccc2n1,"22.4 µM [falling, single point]",
CSc1nsc2nc(=O)c(/C=C3\C(C)=Nc4ccc(C)cc43)c(N)n12,"8.91 µM [falling, partial curve, poor fit]","7.08 µM [rising, partial curve, poor fit]"
COc1ccc(S(=O)(=O)NC(N)=NCCc2ccc(OC)c(OC)c2)cc1,"0.708 µM [rising, full curve, poor fit]",
COC(=O)CCCC(=O)NC1CCCc2c1cnn2-c1ccc(F)cc1F (stereo unspecified),"0.1 µM [rising, full curve, poor fit]",
N#Cc1c(-c2ccc(Cl)cc2)ccnc1N1CCOCC1,"3.55 µM [rising, partial curve, poor fit]",
CCCOc1cccc(C(=O)Nc2cccc(NC(=O)c3ccco3)c2)c1,"2 µM [falling, partial curve]",
Cc1ccc(NCc2nc3ccccc3n2CCOc2ccccc2)cc1,"1.84 µM [falling, partial curve]",
Clc1ccc(-c2nnc(NC3=NCCCCC3)o2)cc1,"1.58 µM [falling, full curve]",
